Data on one substance can be found in publication PMC9677703.

Sequences of proteins named here, by UniProt entry; tags and fusion partners are left off. A change or cut given only in a name is not applied to a line headed by its entry.
UniProt P61328: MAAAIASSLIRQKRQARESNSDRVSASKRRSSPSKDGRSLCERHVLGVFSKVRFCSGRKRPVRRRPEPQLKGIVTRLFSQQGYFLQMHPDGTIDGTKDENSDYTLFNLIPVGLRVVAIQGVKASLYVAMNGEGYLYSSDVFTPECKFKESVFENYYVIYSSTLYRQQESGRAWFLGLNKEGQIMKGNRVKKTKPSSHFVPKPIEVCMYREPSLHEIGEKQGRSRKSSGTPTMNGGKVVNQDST
UniProt Q14978: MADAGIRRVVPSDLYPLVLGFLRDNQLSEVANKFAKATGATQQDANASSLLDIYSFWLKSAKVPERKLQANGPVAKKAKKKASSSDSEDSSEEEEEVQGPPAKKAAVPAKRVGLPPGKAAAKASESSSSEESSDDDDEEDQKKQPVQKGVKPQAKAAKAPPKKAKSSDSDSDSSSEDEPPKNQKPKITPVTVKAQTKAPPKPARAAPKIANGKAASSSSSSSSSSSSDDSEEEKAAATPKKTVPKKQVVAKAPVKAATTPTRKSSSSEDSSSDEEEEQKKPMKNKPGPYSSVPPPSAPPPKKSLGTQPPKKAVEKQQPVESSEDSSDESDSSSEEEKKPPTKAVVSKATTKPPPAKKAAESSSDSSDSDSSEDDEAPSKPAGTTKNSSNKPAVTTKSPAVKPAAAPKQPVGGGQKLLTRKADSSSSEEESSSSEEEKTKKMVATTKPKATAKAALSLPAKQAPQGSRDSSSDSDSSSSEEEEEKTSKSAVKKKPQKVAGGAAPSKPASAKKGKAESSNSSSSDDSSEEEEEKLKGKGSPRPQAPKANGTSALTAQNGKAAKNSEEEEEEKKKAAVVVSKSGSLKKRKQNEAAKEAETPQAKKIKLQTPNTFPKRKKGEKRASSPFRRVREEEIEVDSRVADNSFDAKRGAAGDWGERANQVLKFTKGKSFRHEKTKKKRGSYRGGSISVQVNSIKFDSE

The target of the assay is FGF12Δ-His (131–181 FGF12 deletion mutant) (UniProt P61328). Nature of the assay: pull-down; recombinant FGF12-His or FGF12Δ-His bound to Ni Sepharose (1 h, 4 °C), incubated with U2OS cell lysate (0.15 M KCl, 40 mM Tris, 1% NP-40, 1 mM EDTA, pH 7.2) overnight at 4 °C; western blotting; also with nuclease-treated lysate (no effect); only the target purified. On the technique in general: Immunoblotting shows a protein as a band on a membrane.

No constants are given. Whether binding was seen depends on the method and setting. In cells and extracts the contact can be indirect.

With “nucleolar and coiled-body phosphoprotein 1 (from UniProt Q14978 1-699)”, the binding result is reported as “no binding”.
